Measured data: PubChem BioAssay AID1053208 (Peter MacCallum Cancer Centre, 2014)

Assay: 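Genes whose silencing cuts survival of bone tumour cells only with doxorubicin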 (primary screen)
System: mouse osteosarcoma cells, early-passage culture from an engineered mouse model of fibroblastic bone tumour
Knock-down reagent: siRNA pool against mouse genes, 40 nM
Duration: about 120 h (48 h before drug, then 72 h with drug)
Conditions: doxorubicin 100 nM for 72 h, roughly 30-40% inhibitory dose
Detection: 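Luminescent ATP signal taken as viability with or without 100 nM doxorubicin for 72 h; mean of two wells set against non-targeting siRNA and turned into robust z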
Reading the numbers: viability z-score with doxorubicin and doxorubicin viability vs non-targeting: higher = more viable cells under doxorubicin; viability z-score without drug: higher = more viable cells with knock-down alone; z-score of drug to no-drug ratio: higher = less drug sensitisation by knock-down
Rule for the call: 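Called active if knock-down leaves viability unchanged without drug (z within -2 to 2) but lowers it with doxorubicin (z at or under -2)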
The whole screen tested about 17,000 reagents; shown is a random part of them. Of all reagents, 788 (4.7%) were called active. 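Calls rest on z-score classes alone; an extra cut-off of viability at most 70% of control was not applied to them.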 The numbers tell different reagents against one gene apart.

gene symbol,pool no.,combined z-score class,viability z-score with doxorubicin,viability z-score without drug,z-score of drug to no-drug ratio,doxorubicin viability vs non-targeting,call
Cyp2c54,1,no change with or without drug,1.12,-0.34,1.57,1.04,inactive
Zfp94,1,no change with or without drug,1.35,1.52,0.45,1.06,inactive
Vmn1r85,1,no change with or without drug,0.22,0.34,0.11,0.96,inactive
Amhr2,1,no change with or without drug,1.46,-0.67,2.25,1.07,inactive
Was,1,no change with or without drug,-0.67,0.51,-0.9,0.88,inactive
Sgcd,1,no change with or without drug,-0.67,-0.84,0,0.88,inactive
Fgf11,1,no change with or without drug,-0.79,0.51,-1.01,0.87,inactive
Foxl2,1,no change with or without drug,-0.9,-0.51,-0.56,0.86,inactive
Mrpl15,1,low cell count with and without drug,-3.6,-2.19,-2.47,0.62,inactive
Pagr1a,1,no change with or without drug,0.34,-0.17,0.56,0.97,inactive
Krtap3-2,1,no change with or without drug,-1.8,-1.35,-0.9,0.78,inactive
Cdk5,1,no change with or without drug,1.12,-0.67,1.8,1.04,inactive
Tmod2,1,no change with or without drug,-0.56,-0.51,-0.11,0.89,inactive
Vps52,1,no change with or without drug,-0.67,0.51,-0.9,0.88,inactive
Zkscan5,1,high cell count with and without drug,2.36,2.02,1.01,1.15,inactive
Myocd,1,no change with or without drug,1.35,0.84,0.9,1.06,inactive
Ccdc178,1,low cell count with doxorubicin only,-3.37,-1.52,-2.7,0.64,active
Pabpc6,1,low cell count without drug only,0,-3.2,2.92,0.94,inactive

The list goes on, starting with the last 4 of the part before.
gene symbol,pool no.,combined z-score class,viability z-score with doxorubicin,viability z-score without drug,z-score of drug to no-drug ratio,doxorubicin viability vs non-targeting,call
Zkscan5,1,high cell count with and without drug,2.36,2.02,1.01,1.15,inactive
Myocd,1,no change with or without drug,1.35,0.84,0.9,1.06,inactive
Ccdc178,1,low cell count with doxorubicin only,-3.37,-1.52,-2.7,0.64,active
Pabpc6,1,low cell count without drug only,0,-3.2,2.92,0.94,inactive
Kifc2,1,no change with or without drug,0.56,0.34,0.45,0.99,inactive
Sh3gl3,1,no change with or without drug,0.45,-0.84,1.24,0.98,inactive
Fsaf1,1,no change with or without drug,-0.22,-0.17,0,0.92,inactive
Apol11b,1,low cell count with doxorubicin only,-2.92,-1.01,-2.47,0.68,active
Disp1,1,no change with or without drug,-0.34,0.17,-0.34,0.91,inactive
Or6c69b,1,low cell count with doxorubicin only,-3.93,-0.51,-3.82,0.59,active
Cts8,1,no change with or without drug,-0.34,-0.17,-0.11,0.91,inactive
H2bc6,1,no change with or without drug,-0.45,0.17,-0.45,0.9,inactive
Speer4b,1,no change with or without drug,0.9,1.18,0.22,1.02,inactive
Ncoa5,1,no change with or without drug,0.67,-1.01,1.57,1,inactive
Gab3,1,no change with or without drug,0.34,0.51,0.11,0.97,inactive
Cfap100,1,no change with or without drug,-0.67,0.17,-0.67,0.88,inactive
Cops6,1,no change with or without drug,-0.22,0.51,-0.45,0.92,inactive
Nr6a1,1,no change with or without drug,0.45,-0.17,0.67,0.98,inactive
Brd10,1,no change with or without drug,0.67,0.51,0.45,1,inactive
Map3k8,1,no change with or without drug,0.22,-0.67,0.79,0.96,inactive
Ttf1,1,high cell count without drug only,0.34,2.19,-0.9,0.97,inactive
Rrp1b,1,no change with or without drug,0.22,0.17,0.22,0.96,inactive
Pank3,1,no change with or without drug,0.34,-0.17,0.56,0.97,inactive
Zfp438,1,no change with or without drug,1.12,0.51,0.9,1.04,inactive
Rab3il1,1,no change with or without drug,1.57,1.18,0.9,1.08,inactive
Rab3il1,2,no change with or without drug,-1.69,-1.18,-0.9,0.79,inactive
Oit3,1,no change with or without drug,-0.22,-0.84,0.45,0.92,inactive
Caskin1,1,no change with or without drug,-1.35,-0.17,-1.24,0.82,inactive
Dpp10,1,no change with or without drug,1.35,-0.17,1.69,1.06,inactive
Fasn,1,no change with or without drug,0.11,-0.67,0.67,0.95,inactive
Acer3,1,no change with or without drug,-1.35,-0.51,-1.01,0.82,inactive
Arsg,1,no change with or without drug,-1.12,0.67,-1.46,0.84,inactive
Tsen15,1,no change with or without drug,-0.45,-0.17,-0.22,0.9,inactive
Fkbpl,1,no change with or without drug,-0.22,1.85,-1.24,0.92,inactive
Cyren,1,no change with or without drug,0,0.51,-0.22,0.94,inactive
Dlx2,1,no change with or without drug,0.45,0.34,0.34,0.98,inactive
